The other results are listed elsewhere or left out.
Assays:
Experiment in all cases: log2 fold change, soluble protein after heating vs DMSO (PISA); higher = thermal stabilisation; K562 lysate, 10 uM; active = over 0.2 and 3.5 SD of the protein, either way, in both replicates (recomputed)
[1] = compound: C1=CC=C(C=C1)[C@H](COC2=CC3=C(C=C2)NC(=O)N3)NC(=O)C4=CC=CN(C4=O)CC5=CC(=C(C=C5)F)F
In short: (§1)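 To prepare the extract, K562 pellets were dounce-homogenised in PBS pH 7.4 with 1 mM MgCl2, giving crude material at 1 mg/mL protein. This was treated with 10 μM compound for 30 min, then heated in aliquots for 3 min over 48°C-58°C before pooling and addition of NP-40 to 0.5% at 4°C. Centrifugation at 21,000xg for 90 min left soluble protein in the supernatant, which TMTpro 16plex LC-MS/MS quantified with equalised channel sums. Results are log-two fold changes in thermal stability compared with solvent controls, from duplicates.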

By UniProt entry, the sequences of proteins in these tests, tags left out. Where a name states a change or a piece, a line headed by the entry shows the natural chain unless it says otherwise.
UniProt O60551: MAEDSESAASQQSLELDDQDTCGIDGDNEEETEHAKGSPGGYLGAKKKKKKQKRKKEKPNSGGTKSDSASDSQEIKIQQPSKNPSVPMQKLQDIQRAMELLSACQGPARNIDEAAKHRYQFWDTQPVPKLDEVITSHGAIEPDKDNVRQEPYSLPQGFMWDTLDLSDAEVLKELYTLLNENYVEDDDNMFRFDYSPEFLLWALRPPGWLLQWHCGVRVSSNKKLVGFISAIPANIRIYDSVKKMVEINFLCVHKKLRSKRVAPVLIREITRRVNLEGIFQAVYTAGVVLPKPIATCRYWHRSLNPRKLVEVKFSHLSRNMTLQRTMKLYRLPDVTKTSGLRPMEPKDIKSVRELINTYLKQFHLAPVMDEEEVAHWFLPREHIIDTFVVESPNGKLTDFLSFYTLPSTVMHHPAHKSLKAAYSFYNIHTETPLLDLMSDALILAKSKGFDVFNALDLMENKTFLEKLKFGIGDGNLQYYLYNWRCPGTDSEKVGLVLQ
UniProt Q96IY1: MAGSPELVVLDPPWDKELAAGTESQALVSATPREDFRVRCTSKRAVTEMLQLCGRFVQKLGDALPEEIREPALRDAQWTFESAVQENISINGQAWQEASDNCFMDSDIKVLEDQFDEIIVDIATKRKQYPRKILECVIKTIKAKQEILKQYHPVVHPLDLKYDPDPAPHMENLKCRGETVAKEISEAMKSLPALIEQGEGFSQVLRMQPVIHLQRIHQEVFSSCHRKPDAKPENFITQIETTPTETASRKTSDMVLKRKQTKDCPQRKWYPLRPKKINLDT
UniProt Q9NV35: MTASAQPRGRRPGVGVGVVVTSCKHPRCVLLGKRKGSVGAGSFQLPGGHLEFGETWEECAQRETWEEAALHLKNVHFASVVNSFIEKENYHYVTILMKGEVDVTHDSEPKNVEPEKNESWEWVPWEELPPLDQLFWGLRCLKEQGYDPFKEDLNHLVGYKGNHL
UniProt Q86U38: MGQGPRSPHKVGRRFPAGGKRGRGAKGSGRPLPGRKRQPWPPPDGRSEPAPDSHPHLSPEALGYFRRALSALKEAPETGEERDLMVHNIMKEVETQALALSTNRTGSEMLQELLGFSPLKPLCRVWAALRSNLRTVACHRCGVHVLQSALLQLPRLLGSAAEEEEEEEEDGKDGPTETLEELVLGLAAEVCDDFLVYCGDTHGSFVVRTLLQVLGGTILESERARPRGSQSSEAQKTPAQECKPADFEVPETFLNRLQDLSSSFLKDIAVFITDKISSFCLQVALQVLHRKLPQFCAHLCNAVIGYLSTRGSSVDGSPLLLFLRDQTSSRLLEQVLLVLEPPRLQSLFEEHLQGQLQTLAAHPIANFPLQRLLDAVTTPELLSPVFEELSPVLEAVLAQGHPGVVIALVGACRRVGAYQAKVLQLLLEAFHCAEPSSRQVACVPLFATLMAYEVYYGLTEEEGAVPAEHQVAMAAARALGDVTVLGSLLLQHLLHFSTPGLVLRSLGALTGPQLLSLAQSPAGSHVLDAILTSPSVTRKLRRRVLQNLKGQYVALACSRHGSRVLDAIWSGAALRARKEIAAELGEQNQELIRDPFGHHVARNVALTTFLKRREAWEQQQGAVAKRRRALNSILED
UniProt Q86UY8: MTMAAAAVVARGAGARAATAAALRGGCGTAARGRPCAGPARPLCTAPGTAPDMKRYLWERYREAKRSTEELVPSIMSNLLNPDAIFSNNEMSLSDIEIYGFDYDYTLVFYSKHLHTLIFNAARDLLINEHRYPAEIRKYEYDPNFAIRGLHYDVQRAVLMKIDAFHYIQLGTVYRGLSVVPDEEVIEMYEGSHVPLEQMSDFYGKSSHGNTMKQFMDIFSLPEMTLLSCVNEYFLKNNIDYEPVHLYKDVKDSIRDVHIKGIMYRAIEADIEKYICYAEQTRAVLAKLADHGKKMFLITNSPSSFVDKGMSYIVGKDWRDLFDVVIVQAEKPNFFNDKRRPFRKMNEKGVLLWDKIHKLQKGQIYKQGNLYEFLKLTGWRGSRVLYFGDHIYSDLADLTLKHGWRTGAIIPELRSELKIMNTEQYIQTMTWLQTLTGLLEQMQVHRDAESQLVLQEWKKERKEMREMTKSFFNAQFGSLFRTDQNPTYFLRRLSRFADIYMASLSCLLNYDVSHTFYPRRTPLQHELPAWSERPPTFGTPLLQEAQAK
UniProt Q9Y5Y2: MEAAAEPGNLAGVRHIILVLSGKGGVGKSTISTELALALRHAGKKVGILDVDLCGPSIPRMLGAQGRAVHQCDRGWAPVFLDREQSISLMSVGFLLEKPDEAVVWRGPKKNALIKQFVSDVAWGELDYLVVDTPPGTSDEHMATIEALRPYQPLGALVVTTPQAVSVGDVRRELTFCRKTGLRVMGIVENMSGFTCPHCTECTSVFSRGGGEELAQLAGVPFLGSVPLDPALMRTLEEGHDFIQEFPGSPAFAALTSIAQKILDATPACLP
UniProt Q15738: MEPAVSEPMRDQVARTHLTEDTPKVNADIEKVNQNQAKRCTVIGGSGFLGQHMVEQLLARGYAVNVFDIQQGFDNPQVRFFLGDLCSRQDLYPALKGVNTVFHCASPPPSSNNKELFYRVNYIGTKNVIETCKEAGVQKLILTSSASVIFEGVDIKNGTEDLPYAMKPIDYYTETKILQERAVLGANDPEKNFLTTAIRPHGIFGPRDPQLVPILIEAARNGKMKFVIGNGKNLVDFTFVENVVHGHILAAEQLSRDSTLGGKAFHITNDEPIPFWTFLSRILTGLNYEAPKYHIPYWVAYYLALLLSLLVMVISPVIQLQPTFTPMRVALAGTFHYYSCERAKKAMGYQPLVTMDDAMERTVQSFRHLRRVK
UniProt P78316: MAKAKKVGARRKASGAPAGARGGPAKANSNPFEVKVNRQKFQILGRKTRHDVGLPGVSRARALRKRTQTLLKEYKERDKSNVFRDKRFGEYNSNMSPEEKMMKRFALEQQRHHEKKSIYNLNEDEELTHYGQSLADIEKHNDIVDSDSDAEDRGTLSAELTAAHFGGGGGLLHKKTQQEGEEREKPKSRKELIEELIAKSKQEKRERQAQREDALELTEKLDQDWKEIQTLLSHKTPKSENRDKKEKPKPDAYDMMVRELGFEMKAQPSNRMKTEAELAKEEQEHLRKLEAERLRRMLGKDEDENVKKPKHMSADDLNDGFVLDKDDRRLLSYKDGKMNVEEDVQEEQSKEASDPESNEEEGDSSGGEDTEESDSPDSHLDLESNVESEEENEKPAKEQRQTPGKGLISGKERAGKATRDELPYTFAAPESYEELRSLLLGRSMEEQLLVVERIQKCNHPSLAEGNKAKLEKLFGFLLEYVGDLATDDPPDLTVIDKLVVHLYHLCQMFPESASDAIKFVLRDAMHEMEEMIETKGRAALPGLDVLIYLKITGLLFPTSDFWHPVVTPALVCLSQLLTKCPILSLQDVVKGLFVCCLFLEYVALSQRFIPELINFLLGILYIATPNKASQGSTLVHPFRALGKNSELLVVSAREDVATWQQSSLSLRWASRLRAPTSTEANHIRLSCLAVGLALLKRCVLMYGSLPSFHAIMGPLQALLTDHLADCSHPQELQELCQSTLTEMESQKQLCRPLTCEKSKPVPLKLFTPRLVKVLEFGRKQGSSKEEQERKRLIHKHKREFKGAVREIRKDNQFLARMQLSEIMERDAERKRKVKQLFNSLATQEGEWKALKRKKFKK
UniProt P16083: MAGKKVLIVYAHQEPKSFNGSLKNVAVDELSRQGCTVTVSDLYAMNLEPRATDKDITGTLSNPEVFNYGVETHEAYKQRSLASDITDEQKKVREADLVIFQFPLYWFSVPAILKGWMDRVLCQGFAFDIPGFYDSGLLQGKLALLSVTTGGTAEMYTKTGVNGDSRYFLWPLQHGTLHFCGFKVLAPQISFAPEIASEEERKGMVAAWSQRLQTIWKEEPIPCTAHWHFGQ
UniProt Q9UHY1: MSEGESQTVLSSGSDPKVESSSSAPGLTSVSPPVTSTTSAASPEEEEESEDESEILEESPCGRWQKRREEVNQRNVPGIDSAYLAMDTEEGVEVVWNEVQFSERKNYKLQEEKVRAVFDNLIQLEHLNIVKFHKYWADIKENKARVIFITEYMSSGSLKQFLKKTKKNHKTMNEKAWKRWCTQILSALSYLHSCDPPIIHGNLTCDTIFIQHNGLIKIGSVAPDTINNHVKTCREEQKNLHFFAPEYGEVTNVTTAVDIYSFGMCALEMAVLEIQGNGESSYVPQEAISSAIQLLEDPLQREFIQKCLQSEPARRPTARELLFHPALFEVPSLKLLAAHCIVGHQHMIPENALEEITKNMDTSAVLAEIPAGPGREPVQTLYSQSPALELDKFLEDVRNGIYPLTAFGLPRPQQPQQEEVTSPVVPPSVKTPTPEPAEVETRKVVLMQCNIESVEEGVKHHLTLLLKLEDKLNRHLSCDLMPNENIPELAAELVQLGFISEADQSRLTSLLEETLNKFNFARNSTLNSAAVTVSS
UniProt Q9UGY1: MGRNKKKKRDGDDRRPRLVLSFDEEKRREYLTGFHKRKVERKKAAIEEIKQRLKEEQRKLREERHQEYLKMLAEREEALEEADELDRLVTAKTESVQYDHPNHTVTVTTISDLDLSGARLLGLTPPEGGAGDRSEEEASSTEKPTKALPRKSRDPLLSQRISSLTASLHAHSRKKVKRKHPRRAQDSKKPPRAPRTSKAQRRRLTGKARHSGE
UniProt Q16656: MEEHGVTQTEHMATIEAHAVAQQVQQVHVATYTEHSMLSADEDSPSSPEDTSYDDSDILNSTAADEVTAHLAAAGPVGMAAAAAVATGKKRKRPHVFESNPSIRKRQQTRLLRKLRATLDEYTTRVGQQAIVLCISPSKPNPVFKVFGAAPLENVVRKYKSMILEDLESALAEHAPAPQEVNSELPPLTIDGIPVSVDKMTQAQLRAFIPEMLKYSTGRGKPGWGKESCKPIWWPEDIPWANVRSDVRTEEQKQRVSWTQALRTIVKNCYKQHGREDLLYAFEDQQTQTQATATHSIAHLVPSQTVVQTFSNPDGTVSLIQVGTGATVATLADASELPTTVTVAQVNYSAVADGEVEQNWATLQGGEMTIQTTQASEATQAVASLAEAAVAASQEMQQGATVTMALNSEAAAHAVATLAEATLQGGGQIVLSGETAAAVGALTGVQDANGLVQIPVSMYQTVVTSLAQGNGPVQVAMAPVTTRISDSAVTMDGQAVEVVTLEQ
UniProt Q9Y5B8, whole entry, looked up: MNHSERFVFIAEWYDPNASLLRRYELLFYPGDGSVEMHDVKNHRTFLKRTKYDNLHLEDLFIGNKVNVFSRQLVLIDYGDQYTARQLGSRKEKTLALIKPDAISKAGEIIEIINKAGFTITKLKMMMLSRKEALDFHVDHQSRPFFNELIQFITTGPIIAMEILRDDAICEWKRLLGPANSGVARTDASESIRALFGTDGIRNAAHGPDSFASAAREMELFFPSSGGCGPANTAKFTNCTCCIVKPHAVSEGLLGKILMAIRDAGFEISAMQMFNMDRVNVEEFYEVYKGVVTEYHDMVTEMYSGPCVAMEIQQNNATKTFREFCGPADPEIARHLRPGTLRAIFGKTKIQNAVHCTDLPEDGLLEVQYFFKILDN
UniProt Q9Y639: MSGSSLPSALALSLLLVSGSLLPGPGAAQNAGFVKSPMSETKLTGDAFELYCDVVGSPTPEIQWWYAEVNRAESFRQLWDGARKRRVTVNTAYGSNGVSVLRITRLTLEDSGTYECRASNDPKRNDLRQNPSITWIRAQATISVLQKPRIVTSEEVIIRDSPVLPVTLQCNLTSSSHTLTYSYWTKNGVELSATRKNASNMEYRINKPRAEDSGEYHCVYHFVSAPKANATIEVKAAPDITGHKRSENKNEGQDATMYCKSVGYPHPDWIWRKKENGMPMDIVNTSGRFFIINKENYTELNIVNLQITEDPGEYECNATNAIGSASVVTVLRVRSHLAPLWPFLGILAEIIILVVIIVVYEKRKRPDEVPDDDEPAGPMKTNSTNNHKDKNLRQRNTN
UniProt Q9BQG2: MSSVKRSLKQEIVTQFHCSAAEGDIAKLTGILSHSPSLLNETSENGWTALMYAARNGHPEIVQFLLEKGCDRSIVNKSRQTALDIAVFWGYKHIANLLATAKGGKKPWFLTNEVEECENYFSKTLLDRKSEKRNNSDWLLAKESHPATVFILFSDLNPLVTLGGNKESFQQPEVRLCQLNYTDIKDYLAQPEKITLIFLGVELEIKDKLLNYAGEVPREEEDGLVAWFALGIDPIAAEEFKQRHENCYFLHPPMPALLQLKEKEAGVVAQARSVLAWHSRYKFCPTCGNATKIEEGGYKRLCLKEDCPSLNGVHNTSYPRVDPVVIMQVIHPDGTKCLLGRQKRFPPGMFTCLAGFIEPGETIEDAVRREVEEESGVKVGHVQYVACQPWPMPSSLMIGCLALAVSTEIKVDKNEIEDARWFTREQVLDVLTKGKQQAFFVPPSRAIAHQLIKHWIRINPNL
UniProt Q96MF7: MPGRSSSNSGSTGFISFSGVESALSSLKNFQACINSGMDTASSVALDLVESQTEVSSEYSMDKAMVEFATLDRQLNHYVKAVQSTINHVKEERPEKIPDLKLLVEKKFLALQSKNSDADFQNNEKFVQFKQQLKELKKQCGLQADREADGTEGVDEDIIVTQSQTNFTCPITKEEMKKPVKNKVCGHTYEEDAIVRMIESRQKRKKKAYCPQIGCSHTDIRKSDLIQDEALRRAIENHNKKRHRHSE

[2] = compound: CC1=C(SC2=C1C(=N[C@H](C3=NN=C(N32)C)CC(=O)N)C4=CC=C(C=C4)Cl)C
In short: as §1

[3] = compound: CC1=C2C(=CC=C1)N=C(N(C2=O)C3=CC=CC=C3C)CN4C=NC5=C(N=CN=C54)N
In short: as §1

[4] = compound: Cc1sc2c(c1C)C(c1ccc(Cl)cc1)=N[C@@H](CC(=O)OC(C)(C)C)c1nnc(C)n1-2
In short: as §1

[5] = compound: c1ccc([C@@H]2C[C@H]2NC2CCNCC2)cc1
In short: as §1

Measured: log2 fold change

NMT2 (UniProt O60551)
inactive: [1] -0.025 | [2] 0.061 | [3] 0.018 | [4] 0.025 | [5] -0.043

NOC2L (UniProt Q9Y3T9)
inactive: [1] 0.004 | [2] -0.019 | [3] 0.009 | [5] -0.012
active: [4] 0.324

NSL1 (UniProt Q96IY1)
inactive: [1] 0.028 | [2] 0.012 | [3] -0.001 | [4] 0.053 | [5] -0.014

NUDT15 (UniProt Q9NV35)
inactive: [1] -0.024 | [2] -0.041 | [3] 0.001 | [4] -0.003 | [5] -0.02

NUDT9 (UniProt Q9BW91)
inactive: [1] 0.041 | [2] -0.007 | [3] -0.02 | [4] -0.001 | [5] -0.023

NUF2 (UniProt Q9BZD4)
inactive: [1] -0.03 | [2] 0.008 | [3] 0.018 | [4] 0.007 | [5] 0.016

NOP9 (UniProt Q86U38)
inactive: [1] 0.004 | [2] 0.003 | [3] -0.061 | [4] -0.02 | [5] 0.181

NT5C3A (UniProt Q9H0P0)
inactive: [1] 0.027 | [2] -0.011 | [3] 0.022 | [4] -0.006 | [5] -0.024

NOB1 (UniProt Q9ULX3)
inactive: [1] 0.004 | [2] -0.051 | [3] 0.038 | [4] -0.021 | [5] 0.13

NUDT5 (UniProt Q9UKK9)
inactive: [1] 0.053 | [2] -0.126 | [3] -0.012 | [4] -0.097 | [5] -0.158

NSA2 (UniProt O95478)
inactive: [1] 0.111 | [2] -0.135 | [3] -0.018 | [4] -0.042 | [5] 0.122

NT5DC3 (UniProt Q86UY8)
inactive: [1] 0.032 | [2] 0.001 | [3] 0.009 | [4] -0.025 | [5] -0.068

NUBP2 (UniProt Q9Y5Y2)
inactive: [1] -0.021 | [2] -0.007 | [3] 0.048 | [4] 0.027 | [5] 0.146

NSDHL (UniProt Q15738)
inactive: [1] -0.085 | [2] -0.041 | [3] -0.005 | [4] -0.034 | [5] -0.025

NRBP2 (UniProt Q9NSY0)
inactive: [1] -0.024 | [2] -0.009 | [3] 0.133 | [4] -0.057 | [5] 0.046

NUMA1 (UniProt Q14980)
inactive: [1] 0.006 | [2] 0.02 | [3] 0.022 | [4] 0.019 | [5] 0.052

NOP14 (UniProt P78316)
inactive: [1] 0.01 | [2] 0.015 | [3] 0.027 | [4] 0.006 | [5] -0.018

NQO2 (UniProt P16083)
inactive: [1] -0.022 | [2] -0.047 | [3] -0.017 | [4] 0 | [5] -0.009

NRBP1 (UniProt Q9UHY1)
inactive: [1] 0.025 | [2] 0.022 | [3] 0.001 | [4] -0.006 | [5] -0.011

NOL12 (UniProt Q9UGY1)
inactive: [1] 0.005 | [2] -0.001 | [3] -0.075 | [4] -0.003 | [5] 0.004

Copied from the results shown (two entries):
NUDT9 (UniProt Q9BW91)
inactive: [1] 0.041 | [2] -0.007 | [3] -0.02 | [4] -0.001 | [5] -0.023

NUF2 (UniProt Q9BZD4)
inactive: [1] -0.03 | [2] 0.008 | [3] 0.018 | [4] 0.007 | [5] 0.016

Further results follow:

NRF1 isoform 4 (UniProt Q16656)
inactive: [1] 0.03 | [2] 0.015 | [3] 0.005 | [4] 0.069 | [5] 0.017

NME7 (UniProt Q9Y5B8)
inactive: [1] -0.037 | [2] -0.073 | [3] 0.015 | [4] 0.029 | [5] 0.032

NPTN (UniProt Q9Y639)
inactive: [1] 0.026 | [2] -0.045 | [3] -0.038 | [4] -0.018 | [5] -0.006

NUDT12 (UniProt Q9BQG2)
inactive: [1] -0.037 | [2] 0.018 | [3] -0.047 | [4] -0.051 | [5] 0.012

NSMCE2 (UniProt Q96MF7)
inactive: [1] 0.006 | [2] -0.009 | [3] 0.061 | [4] 0.101 | [5] -0.001

From the supplement of paper PMC10849652
